# Measured values taken from PubChem BioAssay AID1671190 (National Center for Advancing Translational Sciences (NCATS), 2021).
# Protein sequences, listed by entry. Tags and fused reporters are not part of them.
# UniProt P18054, whole entry, looked up: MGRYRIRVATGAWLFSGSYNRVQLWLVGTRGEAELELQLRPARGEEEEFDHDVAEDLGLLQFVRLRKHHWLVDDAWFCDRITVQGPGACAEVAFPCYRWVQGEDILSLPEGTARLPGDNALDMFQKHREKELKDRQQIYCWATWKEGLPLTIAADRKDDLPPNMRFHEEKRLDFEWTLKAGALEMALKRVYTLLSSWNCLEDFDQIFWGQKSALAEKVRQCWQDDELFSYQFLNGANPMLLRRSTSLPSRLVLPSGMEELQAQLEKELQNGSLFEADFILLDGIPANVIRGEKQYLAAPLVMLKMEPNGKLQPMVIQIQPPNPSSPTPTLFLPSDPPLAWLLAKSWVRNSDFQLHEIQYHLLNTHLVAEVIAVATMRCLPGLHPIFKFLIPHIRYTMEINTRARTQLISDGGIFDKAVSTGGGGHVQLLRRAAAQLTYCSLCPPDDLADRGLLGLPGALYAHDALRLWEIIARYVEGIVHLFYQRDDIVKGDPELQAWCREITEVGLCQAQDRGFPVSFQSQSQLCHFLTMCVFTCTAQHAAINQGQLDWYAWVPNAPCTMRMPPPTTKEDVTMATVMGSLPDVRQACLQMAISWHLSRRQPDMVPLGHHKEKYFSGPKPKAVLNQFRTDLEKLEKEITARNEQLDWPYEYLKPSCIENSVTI
# “And” between values parts separate entries of the source, which are not always exact repeats. Identical values can stand only once. In all, about 580,000 compounds went through this assay and about 6,100 (1.1%) were called active. Inconclusive results, whose numbers are uncertain, are shown with a selection of clear calls. The call rests on the fitted dose curve; in most records, active means well fitted inhibition curve with a large enough effect; inconclusive means small, poorly fitted or top-dose-only effect, or another doubt; inactive means no such curve, though single readings can be large or run the other way. Where the call is inconclusive, the potency comes from a doubtful curve fit.
# Target: Polyunsaturated fatty acid lipoxygenase ALOX12 (Homo sapiens) (UniProt P18054)
# Experiment: Primary qHTS assay for inhibitors of human arachidonate 12S-lipoxygenase (ALOX12): Round 2
# Conditions: purified 12hLO, xylenol orange hydroperoxide absorbance; activity change, negative = inhibition: at 108 µM (top of the series) unless noted
# Procedure, shortened: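 Purified human 12hLO at 150 nM in 25 mM Hepes, 0.01% Triton X-100, pH 7.0, preincubated 15 min at room temperature with compound. Reaction started with 40 uM arachidonic acid, 30 min at room temperature. Hydroperoxide measured by Fe-xylenol orange, 573/405 nm absorbance ratio.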
# On the % scale 0 is the no-effect control and ±100 the full control effect; potency means the concentration at half of the fitted maximal effect.
SMILES,Potency,"activity change, negative = inhibition"
O=C(OCC(=O)N1CCCC1)c1cc(-c2ccco2)nc2ccccc12,active: 6.31 µM,
OCC[n+]1ccc(/C=C/c2c[nH]c3ccccc23)cc1,"inconclusive: 44.7 µM [inhibitor, partial curve, poor fit]",
COc1ccccc1NC(=O)c1ccc(S(=O)(=O)N2CCC(C)CC2)cc1,inactive,
Cc1ccc(NC(=O)C(=O)NCCc2c[nH]c3ccccc23)c(C)c1,inactive,
C(#CCN1CCCCC1)COC(c1ccccc1)c1ccccc1,"inconclusive: 50.1 µM [inhibitor, single point]",
CC(C)(C)/C(O)=C/c1nc2ccccc2[nH]c1=O,"inconclusive: 5.62 µM [inhibitor, full curve, poor fit]",
Cc1ccsc1/C=N/NC(=O)Cn1nc(C)c([N+](=O)[O-])c1C,"inconclusive: 79.4 µM [inhibitor, single point]",
Cc1ccc(NC(=O)Cn2cnc3ccc(Cl)cc3c2=O)cc1S(=O)(=O)N1CCOCC1,inactive,
CSCSC1=C(C#N)C(c2ccccc2Cl)C(C(C)=O)=C(C)N1 (centres undefined),"inconclusive: 44.7 µM [inhibitor, partial curve, poor fit]",
O=C(O)c1cc(Cl)c(Br)c(Cl)c1,"inconclusive: 22.4 µM [inhibitor, partial curve, poor fit]",
CCOc1ccc(CCNC(=S)NC(=O)c2ccc(F)cc2Cl)cc1OCC,"inconclusive: 79.4 µM [inhibitor, partial curve, poor fit]",
C[C@H]1CCC(=O)N([C@H](CSc2ccc(Br)cc2)Cc2ccccc2)CC1,inactive,
O=C(c1cccc(N2C(=O)C3CC=CCC3C2=O)c1)N1CCCc2ccccc21 (centres undefined),"inconclusive: 20 µM [inhibitor, partial curve, poor fit]",
CC(C)c1cc(N)c(O)c(C(C)C)c1,"inconclusive: 28.2 µM [inhibitor, partial curve]",
COc1ccc(-n2c(=O)c(-c3cccs3)nc3cnc(OC)nc32)cc1,"inconclusive: 89.1 µM [inhibitor, single point]",
Cc1cccc(CNc2ncnc3ccc(-c4cccc(C#N)c4)cc23)c1,"inconclusive: 39.8 µM [inhibitor, partial curve, poor fit]",
Cc1ccc(N(Cc2ccco2)C(=O)CCc2ncc(-c3c(F)cccc3F)o2)cc1,"inconclusive: 50.1 µM [inhibitor, partial curve, poor fit]",
CCCN(CCC)C(=O)c1cc(-c2ccc3c(c2)OCO3)nc2ccccc12,"inconclusive: 56.2 µM [inhibitor, partial curve, poor fit]",
O=C(NCc1cccc(F)c1)c1nc2c(o1)CCN(Cc1cccc(Cl)c1)CC2,"inconclusive: 39.8 µM [inhibitor, full curve, poor fit]",
CSc1ccc(CCNC(=O)CCc2nnc3ccc(N4CCCC4)nn23)cc1,"inconclusive: 8.91 µM [inhibitor, partial curve, poor fit]",
Cc1cccc(OCC2(CNCc3cccnc3)C[C@@H](O)[C@@H](O)C2)n1 (some centres undefined),"inconclusive: 12.6 µM [inhibitor, full curve]",
Cc1oc(-c2cccc(Cl)c2)nc1CN1CCC(C(=O)N2CCN(c3ccccc3F)CC2)CC1,inactive,

SMILES,Potency,"activity change, negative = inhibition"
CC1CCC(N2CC(=O)N(CCC3=CCCCC3)C(c3ccc(F)cc3)C2=O)CC1 (centres undefined),,inconclusive: -34.5% [inhibitor]
COc1ccc(S(=O)(=O)N2CCN(C(=O)c3ccc4ccccc4n3)CC2)cc1,"inconclusive: 44.7 µM [inhibitor, partial curve, poor fit]",
CN(CCO)S(=O)(=O)c1ccc2c(c1)C(=O)c1cc(S(=O)(=O)N(C)CCO)ccc1-2,"inconclusive: 50.1 µM [inhibitor, partial curve, poor fit]",
CN(C(=O)c1cccc(NC(=O)Cc2cccc(NC(=O)C3CCCN(C(=O)c4ccccc4)C3)c2)c1)C1CC1 (centres undefined),"inconclusive: 31.6 µM [inhibitor, partial curve, poor fit]",
Cc1ccc(C)c2nc3sc(C(=O)N4CCOCC4)c(N)c3cc12,"inconclusive: 50.1 µM [inhibitor, partial curve, poor fit]",
O=C(O)CSc1nnc(-c2ccc3c(c2)OCO3)n1-c1ccccc1,"inconclusive: 50.1 µM [inhibitor, partial curve, poor fit]",
CCOCCCNC(=O)c1cc(-c2ccncc2)nc2ccccc12,"inconclusive: 12.6 µM [inhibitor, partial curve, poor fit]",
COCCn1ncc(N2CCCC(CC(=O)Nc3ccc(C)cc3C)C2)cc1=O (centres undefined),"inconclusive: 11.2 µM [inhibitor, partial curve, poor fit]",
Cc1c(CNC2CCC(C)CC2)c(C(=O)O)c(C)n1Cc1ccc(Cl)cc1 (centres undefined),"inconclusive: 44.7 µM [inhibitor, partial curve, poor fit]",
CCOc1cc(C(=S)N2CCOCC2)ccc1OC,"inconclusive: 44.7 µM [inhibitor, partial curve, poor fit]",
CCN(CC)C(=O)[C@H]1CC(CC(=O)NC(C)(C)C)C(=O)N2CCc3c([nH]c4ccccc34)[C@]12C (some centres undefined),"inconclusive: 20 µM [inhibitor, full curve, poor fit]",
S=C1NC[C@H](CC2CCCCC2)N1CCc1cccc2ccccc12,active: 25.1 µM,
Cc1ccc(Sc2cc(C)c3cccc(C(C)C)c3n2)cc1,inactive,
Cc1cc(C)nc(N/N=C/c2ccccc2OCc2ccc(Cl)cc2)n1,inactive,
COC(=O)CCC(NC(=O)C12CC3CC(CC(C3)C1)C2)C(=O)OC (centres undefined),"inconclusive: 89.1 µM [inhibitor, partial curve, poor fit]",
CCc1c(C(=O)Nc2scc(-c3cc(C)ccc3C)c2C#N)csc1C,inactive,
CCOc1ccc(N(CC(=O)NCc2ccccc2)S(C)(=O)=O)cc1,inactive,
O=C(NCc1cccc(Cl)c1)c1cccc2c(-c3cccnc3)coc12,inactive,
CN(C(=O)Nc1cccc(Cl)c1)C(c1ccc(Cl)cc1)c1nccn1C (centres undefined),"inconclusive: 1.26 µM [inhibitor, full curve, poor fit]",
Cc1cc(-c2ccccc2)nc(=O)[nH]1,"inconclusive: 35.5 µM [inhibitor, partial curve, poor fit]",
Cc1ccc(NC(=O)COC(=O)COc2ccc(C3SCCCS3)cc2)c(Cl)c1,"inconclusive: 70.8 µM [inhibitor, partial curve, poor fit]",
CC(C)NCC(=O)NC(=O)NC(C)C,"inconclusive: 0.631 µM [inhibitor, full curve, poor fit]",

SMILES,Potency,"activity change, negative = inhibition"
CC(Sc1nc(CN2CCOCC2)nc2ccccc12)C(=O)Nc1cccc(F)c1 (centres undefined),inactive,
COc1ccc(N2CCN(C(=O)CN3CCN(C(c4ccccc4)c4ccccc4)CC3)CC2)cc1,inactive,
N#Cc1cc2cc3c(cc2nc1NCCNC(=S)NCCCN1CCOCC1)OCO3,"inconclusive: 15.8 µM [inhibitor, full curve, poor fit]",
CN1CCN(C(=O)c2cc3nc(-c4ccccc4)cc(C(F)(F)F)n3n2)CC1,inactive,
CCCNC(=O)/C(C#N)=C/c1c[nH]c2ccccc12,"inconclusive: 44.7 µM [inhibitor, partial curve, poor fit]",
CC(=O)N1CC2(CCCN(CC3CCCCC3)C2)Cc2ccccc21 (centres undefined),"inconclusive: 39.8 µM [inhibitor, partial curve]",
COc1cccc(CNC(=O)CCC2CCCN(Cc3ccc(OC(F)F)cc3)C2)c1 (centres undefined),"inconclusive: 0.398 µM [inhibitor, full curve, poor fit]",
O=C(COc1ccc(S(=O)(=O)N2CCCC2)cc1)N1CCN(c2ccccc2F)CC1,inactive,
Cc1ccccc1S(=O)(=O)NCC1Cn2cccc2C(=O)N1C (centres undefined),"inconclusive: 70.8 µM [inhibitor, partial curve, poor fit]",
CCCc1[nH]nc2c1C(c1ccccc1OC)C(C#N)=C(N)O2 (centres undefined),"inconclusive: 79.4 µM [inhibitor, partial curve, poor fit] and inconclusive: 20 µM [inhibitor, partial curve, poor fit]",
COC(=O)C1CN(Cc2ccccc2)CCS(=O)(=O)N1Cc1cn(Cc2ccccc2)nn1 (centres undefined),"inconclusive: 20 µM [inhibitor, partial curve, poor fit]",
Cc1cc(NCc2nc(-c3cccs3)no2)ccc1-n1cnnn1,inactive,
CCOc1cc(CNc2ccc(N3CCCCC3)cc2)cc(Br)c1OCC(=O)NC(C)(C)C,"inconclusive: 44.7 µM [inhibitor, partial curve, poor fit]",
COc1cccc(/C=N/Nc2snc(SC)c2C#N)c1,inactive,
CSC1=N/C(=C\c2ccc(-c3cccc(Cl)c3)o2)C(=O)S1,"inconclusive: 56.2 µM [inhibitor, partial curve, poor fit]",
COc1ccc(OC)c(C(c2nnnn2C2CCCC2)N2CCN(c3ccccc3)CC2)c1 (centres undefined),"inconclusive: 35.5 µM [inhibitor, partial curve, poor fit]",
CCOC(=O)c1sc(NC(=O)c2ccc(F)c(S(=O)(=O)N3CCCCC3)c2)cc1C,inactive,
COc1ccc(CN2CCN(Cc3ccc(C(F)(F)F)cc3)CC2)cc1,"inconclusive: 0.501 µM [inhibitor, full curve]",
O=C(c1ccc(-n2ccnc2)cc1)N1CCN(c2cccc(Cl)c2)C(=O)C1,inactive,
Clc1cc(Cl)cc(Nc2ccccc2CN(C/C=C/c2ccc3c(c2)OCO3)Cc2ccccc2)c1,"inconclusive: 50.1 µM [inhibitor, partial curve, poor fit]",
